{"source": "PubChem BioAssay AID504774 | Drosophila RNAi Screening Center, 2011", "assay": "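Fly genes whose loss alters survival after alkylation damage to DNA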 (primary screen)", "system": "Drosophila Kc167 cells", "reagents": "long dsRNA against Drosophila genes, about 0.25 µg dsRNA per well", "timing": "about 6 days: 3 days knock-down, then 3 days with or without MMS", "treatment": "methyl methanesulphonate 0.004% (w/v) for 3 days after knock-down", "measurement": "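ATP-dependent luminescence as a measure of live cells in MMS-exposed wells, quantile normalised within each plate, with replicate values also given as a mean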", "direction": "mean viability with MMS and viability with MMS: higher = more surviving cells after MMS", "note": "The deposit covers about 23,000 reagents; this is an unselected part of those with a known target gene and a result. 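Values are quantile-normalised luminescence on an arbitrary scale; higher means more cells surviving MMS.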 Not all columns of the deposit are shown."}
{"Gene": "Nrx-IV (Neurexin IV)", "DRSC id": "DRSC11238", "mean viability with MMS": 3.52e6, "viability with MMS, replicate 1": 3.94e6}
{"Gene": "CG15515", "DRSC id": "DRSC15054", "mean viability with MMS": 3.58e6, "viability with MMS, replicate 1": 4.05e6}
{"Gene": "Vha16-3 (Vacuolar H[+] ATPase 16kD subunit 3)", "DRSC id": "DRSC10872", "mean viability with MMS": 3.49e6, "viability with MMS, replicate 1": 3.90e6}
{"Gene": "Sgt (small glutamine-rich tetratricopeptide containing protein)", "DRSC id": "DRSC02812", "mean viability with MMS": 3.26e6, "viability with MMS, replicate 1": 3.84e6}
{"Gene": "Cpr47Ed (Cuticular protein 47Ed)", "DRSC id": "DRSC07331", "mean viability with MMS": 3.57e6, "viability with MMS, replicate 1": 4.01e6}
{"Gene": "CG16986", "DRSC id": "DRSC08502", "mean viability with MMS": 3.71e6, "viability with MMS, replicate 1": 4.14e6}
{"Gene": "CG2577", "DRSC id": "DRSC19863", "mean viability with MMS": 3.28e6, "viability with MMS, replicate 1": 3.82e6}
{"Gene": "CG2577", "DRSC id": "DRSC23309", "mean viability with MMS": 3.54e6, "viability with MMS, replicate 1": 4.06e6}
{"Gene": "CG33217", "DRSC id": "DRSC22907", "mean viability with MMS": 3.50e6, "viability with MMS, replicate 1": 3.92e6}
{"Gene": "S (Star)", "DRSC id": "DRSC00785", "mean viability with MMS": 3.38e6, "viability with MMS, replicate 1": 3.77e6}
{"Gene": "Myc", "DRSC id": "DRSC18762", "mean viability with MMS": 2.83e6, "viability with MMS, replicate 1": 3.61e6}
{"Gene": "Semp1 (Seminal metalloprotease-1)", "DRSC id": "DRSC01874", "mean viability with MMS": 3.66e6, "viability with MMS, replicate 1": 4.11e6}
{"Gene": "ND-49 (NADH dehydrogenase (ubiquinone) 49 kDa subunit)", "DRSC id": "DRSC17151", "mean viability with MMS": 3.43e6, "viability with MMS, replicate 1": 3.95e6}
{"Gene": "Wnt10 (Wnt oncogene analog 10)", "DRSC id": "DRSC00990", "mean viability with MMS": 3.81e6, "viability with MMS, replicate 1": 4.31e6}
{"Gene": "Wnt10 (Wnt oncogene analog 10)", "DRSC id": "DRSC02797", "mean viability with MMS": 3.55e6, "viability with MMS, replicate 1": 3.97e6}
{"Gene": "mfas (midline fasciclin)", "DRSC id": "DRSC16997", "mean viability with MMS": 3.63e6, "viability with MMS, replicate 1": 4.24e6}
{"Gene": "sro (shroud)", "DRSC id": "DRSC14469", "mean viability with MMS": 3.52e6, "viability with MMS, replicate 1": 4.24e6}
{"Gene": "epsilonCOP (Coat Protein (coatomer) epsilon)", "DRSC id": "DRSC02003", "mean viability with MMS": 3.38e6, "viability with MMS, replicate 1": 3.94e6}
{"Gene": "Swt1 (Swt1 RNA endoribonuclease)", "DRSC id": "DRSC20028", "mean viability with MMS": 3.71e6, "viability with MMS, replicate 1": 4.32e6}
{"Gene": "AP-2sigma (Adaptor Protein complex 2, sigma subunit)", "DRSC id": "DRSC15957", "mean viability with MMS": 3.52e6, "viability with MMS, replicate 1": 4.03e6}
{"Gene": "CG6893", "DRSC id": "DRSC10742", "mean viability with MMS": 3.39e6, "viability with MMS, replicate 1": 3.78e6}
{"Gene": "CG11898", "DRSC id": "DRSC14432", "mean viability with MMS": 3.71e6, "viability with MMS, replicate 1": 4.10e6}
{"Gene": "Or94b (Odorant receptor 94b)", "DRSC id": "DRSC16773", "mean viability with MMS": 3.67e6, "viability with MMS, replicate 1": 4.28e6}
{"Gene": "CG31664", "DRSC id": "DRSC22084", "mean viability with MMS": 3.57e6, "viability with MMS, replicate 1": 4.04e6}

An excerpt from above, reduced to “mean viability with MMS”.
sro (shroud) [DRSC14469] = 3.52e6
epsilonCOP (Coat Protein (coatomer) epsilon) [DRSC02003] = 3.38e6
Swt1 (Swt1 RNA endoribonuclease) [DRSC20028] = 3.71e6
